Assay results from article PMC10298087.
Results are given in words; binding and its absence hold for the method and conditions named. Binding seen in cells or lysates may run through a third protein. Here binding means that the protein was enriched with, or labelled near, the bait; the list need not be complete.

Amino acid sequences for entries named in this document (tags omitted).
UniProt A6NFI3: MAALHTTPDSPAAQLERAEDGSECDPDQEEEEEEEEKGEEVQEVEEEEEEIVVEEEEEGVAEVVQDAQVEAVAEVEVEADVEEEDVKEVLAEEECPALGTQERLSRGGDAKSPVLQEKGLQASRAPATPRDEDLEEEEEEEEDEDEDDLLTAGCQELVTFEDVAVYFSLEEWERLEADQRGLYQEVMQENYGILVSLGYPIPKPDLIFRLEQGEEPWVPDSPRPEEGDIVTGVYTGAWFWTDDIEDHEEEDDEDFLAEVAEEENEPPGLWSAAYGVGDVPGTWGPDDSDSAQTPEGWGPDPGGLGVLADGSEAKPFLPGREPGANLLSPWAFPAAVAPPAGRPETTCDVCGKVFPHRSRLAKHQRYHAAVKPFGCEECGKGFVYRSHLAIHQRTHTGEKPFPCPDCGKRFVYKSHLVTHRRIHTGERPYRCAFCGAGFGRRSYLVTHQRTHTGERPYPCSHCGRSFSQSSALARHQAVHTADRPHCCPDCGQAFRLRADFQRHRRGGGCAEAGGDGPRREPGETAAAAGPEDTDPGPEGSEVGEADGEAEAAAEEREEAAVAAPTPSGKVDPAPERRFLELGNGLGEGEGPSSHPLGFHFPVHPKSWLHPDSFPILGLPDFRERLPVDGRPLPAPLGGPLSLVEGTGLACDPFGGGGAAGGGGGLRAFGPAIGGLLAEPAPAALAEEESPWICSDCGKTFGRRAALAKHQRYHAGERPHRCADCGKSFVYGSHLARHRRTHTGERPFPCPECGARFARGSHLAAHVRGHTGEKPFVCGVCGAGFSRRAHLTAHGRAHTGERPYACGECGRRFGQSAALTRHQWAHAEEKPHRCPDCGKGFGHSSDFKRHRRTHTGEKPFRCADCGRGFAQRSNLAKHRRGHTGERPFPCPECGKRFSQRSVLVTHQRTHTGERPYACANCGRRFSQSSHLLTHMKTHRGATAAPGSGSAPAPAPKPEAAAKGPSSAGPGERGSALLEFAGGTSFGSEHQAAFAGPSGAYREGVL
UniProt Q9BS31: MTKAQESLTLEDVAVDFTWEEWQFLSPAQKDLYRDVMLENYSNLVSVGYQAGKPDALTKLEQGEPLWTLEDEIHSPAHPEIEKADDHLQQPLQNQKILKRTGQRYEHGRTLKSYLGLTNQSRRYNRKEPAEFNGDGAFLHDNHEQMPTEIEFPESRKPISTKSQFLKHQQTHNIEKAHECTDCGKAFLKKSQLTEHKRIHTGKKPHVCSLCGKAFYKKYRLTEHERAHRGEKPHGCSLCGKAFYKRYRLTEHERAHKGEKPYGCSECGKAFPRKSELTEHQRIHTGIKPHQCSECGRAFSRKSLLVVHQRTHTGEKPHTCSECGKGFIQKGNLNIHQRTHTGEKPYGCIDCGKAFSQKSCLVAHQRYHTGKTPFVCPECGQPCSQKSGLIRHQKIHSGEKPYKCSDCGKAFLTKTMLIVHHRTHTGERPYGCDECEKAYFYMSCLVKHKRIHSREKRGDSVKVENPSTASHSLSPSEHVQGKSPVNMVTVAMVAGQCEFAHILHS
UniProt Q8N587: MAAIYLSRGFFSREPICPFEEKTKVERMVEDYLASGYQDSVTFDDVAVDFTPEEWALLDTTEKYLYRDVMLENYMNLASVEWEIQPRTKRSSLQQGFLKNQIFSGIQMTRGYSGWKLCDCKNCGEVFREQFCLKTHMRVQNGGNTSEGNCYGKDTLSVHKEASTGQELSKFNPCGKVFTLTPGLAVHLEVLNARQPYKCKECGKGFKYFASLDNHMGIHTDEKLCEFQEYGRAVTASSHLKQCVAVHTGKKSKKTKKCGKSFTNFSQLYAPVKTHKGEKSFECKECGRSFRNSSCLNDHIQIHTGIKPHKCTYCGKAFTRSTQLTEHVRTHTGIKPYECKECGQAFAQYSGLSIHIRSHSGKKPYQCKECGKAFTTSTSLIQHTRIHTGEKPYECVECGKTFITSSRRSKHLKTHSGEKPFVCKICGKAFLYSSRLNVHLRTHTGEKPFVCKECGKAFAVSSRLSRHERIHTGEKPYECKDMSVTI
UniProt Q8N8Z8: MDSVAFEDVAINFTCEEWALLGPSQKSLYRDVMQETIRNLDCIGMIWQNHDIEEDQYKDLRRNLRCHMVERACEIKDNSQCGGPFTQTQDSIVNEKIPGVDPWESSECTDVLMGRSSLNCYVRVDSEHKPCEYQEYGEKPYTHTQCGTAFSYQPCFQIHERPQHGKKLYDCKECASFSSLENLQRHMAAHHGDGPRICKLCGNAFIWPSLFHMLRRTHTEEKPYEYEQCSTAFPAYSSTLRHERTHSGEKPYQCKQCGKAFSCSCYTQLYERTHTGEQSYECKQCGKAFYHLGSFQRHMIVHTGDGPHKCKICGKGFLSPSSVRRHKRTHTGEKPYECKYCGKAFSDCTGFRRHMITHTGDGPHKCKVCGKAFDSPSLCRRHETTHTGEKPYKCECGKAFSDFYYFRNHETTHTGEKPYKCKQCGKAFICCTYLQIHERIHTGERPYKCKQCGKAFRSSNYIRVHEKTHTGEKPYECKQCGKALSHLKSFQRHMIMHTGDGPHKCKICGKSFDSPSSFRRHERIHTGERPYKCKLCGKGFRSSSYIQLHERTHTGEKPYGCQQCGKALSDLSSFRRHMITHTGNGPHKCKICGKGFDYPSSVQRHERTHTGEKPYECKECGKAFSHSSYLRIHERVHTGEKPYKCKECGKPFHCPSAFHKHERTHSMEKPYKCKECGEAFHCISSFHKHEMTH

What was measured:
[1] = target: wild-type TRIM28 (endogenous, K562 cells) (human (endogenous in K562)) (UniProt Q13263); assay: affinity purification with mass spectrometry; IP of endogenous TRIM28 or TRIM28-K304Q from K562 cells with anti-TRIM28-N-conjugated protein A beads; washed, eluted with the antibody-generating peptide; MS (LTQ-Orbitrap Velos, Mascot)
[2] = target: T1, TRIM28-K304Q (endogenous, knock-in K562 clone Q1) (human (endogenous in K562)) (UniProt Q13263); assay: as above
T1 sequence: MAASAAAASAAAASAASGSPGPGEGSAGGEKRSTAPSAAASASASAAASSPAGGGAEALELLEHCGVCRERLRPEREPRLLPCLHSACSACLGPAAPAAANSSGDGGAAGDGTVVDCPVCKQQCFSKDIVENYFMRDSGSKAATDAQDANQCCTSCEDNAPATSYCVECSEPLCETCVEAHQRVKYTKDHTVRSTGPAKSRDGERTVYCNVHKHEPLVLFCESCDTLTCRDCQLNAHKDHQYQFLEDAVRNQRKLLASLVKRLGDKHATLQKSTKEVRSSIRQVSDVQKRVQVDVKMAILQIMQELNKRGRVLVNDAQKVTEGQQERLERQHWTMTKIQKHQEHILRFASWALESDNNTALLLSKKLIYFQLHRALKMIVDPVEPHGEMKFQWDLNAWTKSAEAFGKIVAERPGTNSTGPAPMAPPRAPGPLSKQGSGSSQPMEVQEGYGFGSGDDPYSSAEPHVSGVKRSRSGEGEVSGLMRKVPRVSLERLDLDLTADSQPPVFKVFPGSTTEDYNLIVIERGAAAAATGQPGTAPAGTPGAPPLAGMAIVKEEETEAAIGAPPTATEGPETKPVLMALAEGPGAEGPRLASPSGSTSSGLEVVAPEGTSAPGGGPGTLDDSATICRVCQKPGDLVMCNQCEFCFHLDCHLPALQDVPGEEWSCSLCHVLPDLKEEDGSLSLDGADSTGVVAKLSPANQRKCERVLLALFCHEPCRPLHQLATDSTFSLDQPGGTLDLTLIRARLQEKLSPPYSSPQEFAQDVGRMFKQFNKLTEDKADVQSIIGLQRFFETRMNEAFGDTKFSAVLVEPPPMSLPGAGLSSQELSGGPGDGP

binding [1]	binding [2]	Substance
binds	binds	ZNF316 (from UniProt A6NFI3 1-1004)
binds	binds	ZNF649 (from UniProt Q9BS31 1-505)
binds	binds	ZNF561 (from UniProt Q8N587 1-486)
binds	binds	ZNF441 (from UniProt Q8N8Z8 1-693)
